Assay results published in paper PMC12514153.
Results are given in words; binding and its absence hold for the method and conditions named. Binding seen in cells or lysates may run through a third protein. Some binding calls cover weakened binding; strength is not graded here.

By UniProt entry, the sequences of proteins in these tests, tags left out.
UniProt P08727: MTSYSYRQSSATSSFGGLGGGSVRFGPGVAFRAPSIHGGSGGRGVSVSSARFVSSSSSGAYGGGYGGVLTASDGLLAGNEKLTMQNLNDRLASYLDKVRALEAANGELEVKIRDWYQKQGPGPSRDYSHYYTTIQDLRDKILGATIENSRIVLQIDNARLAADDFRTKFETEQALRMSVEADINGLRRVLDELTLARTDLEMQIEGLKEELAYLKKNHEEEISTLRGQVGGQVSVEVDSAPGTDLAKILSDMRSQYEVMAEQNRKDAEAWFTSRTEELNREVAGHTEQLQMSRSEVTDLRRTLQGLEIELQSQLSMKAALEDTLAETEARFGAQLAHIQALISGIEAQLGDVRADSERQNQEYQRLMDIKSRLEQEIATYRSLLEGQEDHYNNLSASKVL
UniProt P05787: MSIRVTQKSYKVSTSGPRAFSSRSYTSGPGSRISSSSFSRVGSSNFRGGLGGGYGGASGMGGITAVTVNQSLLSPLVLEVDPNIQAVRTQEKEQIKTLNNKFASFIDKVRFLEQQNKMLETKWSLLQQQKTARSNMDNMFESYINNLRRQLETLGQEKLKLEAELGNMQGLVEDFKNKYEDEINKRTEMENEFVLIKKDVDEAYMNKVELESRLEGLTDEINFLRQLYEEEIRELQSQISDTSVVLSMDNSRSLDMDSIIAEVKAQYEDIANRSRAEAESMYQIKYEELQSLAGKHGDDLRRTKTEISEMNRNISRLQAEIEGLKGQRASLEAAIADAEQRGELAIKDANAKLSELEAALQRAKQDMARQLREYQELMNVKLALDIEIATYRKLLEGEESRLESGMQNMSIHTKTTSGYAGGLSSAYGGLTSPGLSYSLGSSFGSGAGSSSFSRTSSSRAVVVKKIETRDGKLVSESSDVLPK
UniProt P15924: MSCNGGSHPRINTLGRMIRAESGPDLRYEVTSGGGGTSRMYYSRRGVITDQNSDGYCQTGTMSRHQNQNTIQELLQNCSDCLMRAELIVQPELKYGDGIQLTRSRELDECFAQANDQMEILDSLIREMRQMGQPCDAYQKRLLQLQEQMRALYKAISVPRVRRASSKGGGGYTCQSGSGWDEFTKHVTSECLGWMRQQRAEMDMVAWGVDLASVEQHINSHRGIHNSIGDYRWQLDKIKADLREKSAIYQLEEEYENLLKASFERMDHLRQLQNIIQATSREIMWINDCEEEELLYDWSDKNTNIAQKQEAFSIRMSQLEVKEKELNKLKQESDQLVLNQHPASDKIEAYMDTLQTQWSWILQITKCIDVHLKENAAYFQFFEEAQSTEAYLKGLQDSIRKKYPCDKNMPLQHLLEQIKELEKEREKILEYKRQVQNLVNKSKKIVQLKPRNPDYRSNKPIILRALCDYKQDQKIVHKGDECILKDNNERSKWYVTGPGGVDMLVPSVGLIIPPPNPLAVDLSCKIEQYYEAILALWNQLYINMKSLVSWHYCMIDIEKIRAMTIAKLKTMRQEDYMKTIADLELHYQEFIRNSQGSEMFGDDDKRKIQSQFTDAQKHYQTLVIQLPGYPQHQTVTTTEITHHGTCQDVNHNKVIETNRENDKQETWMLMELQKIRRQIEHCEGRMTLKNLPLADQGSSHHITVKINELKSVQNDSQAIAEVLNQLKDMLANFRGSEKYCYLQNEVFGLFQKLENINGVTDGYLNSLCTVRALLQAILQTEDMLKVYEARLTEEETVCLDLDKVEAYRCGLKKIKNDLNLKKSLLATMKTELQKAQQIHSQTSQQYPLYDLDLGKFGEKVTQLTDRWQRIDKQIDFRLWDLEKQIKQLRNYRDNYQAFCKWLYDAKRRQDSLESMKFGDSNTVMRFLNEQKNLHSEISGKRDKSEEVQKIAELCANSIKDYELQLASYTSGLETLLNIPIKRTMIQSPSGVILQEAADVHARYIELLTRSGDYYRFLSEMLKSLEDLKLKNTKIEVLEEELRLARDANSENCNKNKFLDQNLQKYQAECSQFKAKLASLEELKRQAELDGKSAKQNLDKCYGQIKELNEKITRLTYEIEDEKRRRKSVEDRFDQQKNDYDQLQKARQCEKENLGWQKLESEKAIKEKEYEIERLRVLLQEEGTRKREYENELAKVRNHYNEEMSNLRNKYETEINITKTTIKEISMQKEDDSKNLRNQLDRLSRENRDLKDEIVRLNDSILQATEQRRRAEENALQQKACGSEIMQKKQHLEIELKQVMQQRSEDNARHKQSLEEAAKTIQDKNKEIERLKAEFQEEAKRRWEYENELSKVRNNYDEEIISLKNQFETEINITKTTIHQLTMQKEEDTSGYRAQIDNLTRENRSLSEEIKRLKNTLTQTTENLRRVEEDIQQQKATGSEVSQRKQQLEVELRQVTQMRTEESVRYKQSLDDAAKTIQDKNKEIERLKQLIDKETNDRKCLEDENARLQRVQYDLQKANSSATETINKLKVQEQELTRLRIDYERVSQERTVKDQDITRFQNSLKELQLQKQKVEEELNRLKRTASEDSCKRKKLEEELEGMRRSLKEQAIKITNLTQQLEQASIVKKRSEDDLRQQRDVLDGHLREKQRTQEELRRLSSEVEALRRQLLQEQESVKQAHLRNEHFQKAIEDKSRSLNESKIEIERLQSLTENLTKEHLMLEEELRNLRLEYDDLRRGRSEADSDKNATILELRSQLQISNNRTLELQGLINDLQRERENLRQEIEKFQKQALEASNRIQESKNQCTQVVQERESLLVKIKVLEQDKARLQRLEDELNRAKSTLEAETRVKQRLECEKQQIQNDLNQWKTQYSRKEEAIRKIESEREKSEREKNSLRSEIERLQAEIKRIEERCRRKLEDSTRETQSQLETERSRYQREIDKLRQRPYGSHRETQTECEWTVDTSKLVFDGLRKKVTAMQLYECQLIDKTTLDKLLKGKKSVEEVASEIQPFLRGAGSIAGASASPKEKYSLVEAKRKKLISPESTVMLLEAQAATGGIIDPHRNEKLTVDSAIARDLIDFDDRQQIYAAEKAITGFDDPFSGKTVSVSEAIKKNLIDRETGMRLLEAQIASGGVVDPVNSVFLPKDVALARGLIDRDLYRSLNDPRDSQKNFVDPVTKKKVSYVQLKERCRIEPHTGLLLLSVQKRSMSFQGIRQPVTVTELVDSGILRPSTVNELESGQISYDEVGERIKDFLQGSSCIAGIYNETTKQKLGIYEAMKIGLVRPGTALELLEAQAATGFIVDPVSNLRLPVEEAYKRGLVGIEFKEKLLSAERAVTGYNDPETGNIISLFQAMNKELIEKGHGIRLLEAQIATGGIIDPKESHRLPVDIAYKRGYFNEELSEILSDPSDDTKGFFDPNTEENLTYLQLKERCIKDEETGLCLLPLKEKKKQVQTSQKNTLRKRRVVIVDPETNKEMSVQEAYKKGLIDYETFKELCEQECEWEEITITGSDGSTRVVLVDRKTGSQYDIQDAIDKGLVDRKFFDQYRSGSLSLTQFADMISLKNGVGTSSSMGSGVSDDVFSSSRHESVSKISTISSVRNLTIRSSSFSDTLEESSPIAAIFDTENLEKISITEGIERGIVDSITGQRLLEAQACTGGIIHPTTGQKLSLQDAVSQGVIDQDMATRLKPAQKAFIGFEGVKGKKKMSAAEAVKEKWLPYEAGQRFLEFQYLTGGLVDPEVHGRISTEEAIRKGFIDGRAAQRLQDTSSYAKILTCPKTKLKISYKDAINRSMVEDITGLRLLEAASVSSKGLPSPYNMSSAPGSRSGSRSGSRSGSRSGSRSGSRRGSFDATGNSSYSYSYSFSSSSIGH

B1: plakophilin-3 (protein, UniProt Q9Y446 1-797)
chain: MQDGNFLLSALQPEAGVCSLALPSDLQLDRRGAEGPEAERLRAARVQEQVRARLLQLGQQPRHNGAAEPEPEAETARGTSRGQYHTLQAGFSSRSQGLSGDKTSGFRPIAKPAYSPASWSSRSAVDLSCSRRLSSAHNGGSAFGAAGYGGAQPTPPMPTRPVSFHERGGVGSRADYDTLSLRSLRLGPGGLDDRYSLVSEQLEPAATSTYRAFAYERQASSSSSRAGGLDWPEATEVSPSRTIRAPAVRTLQRFQSSHRSRGVGGAVPGAVLEPVARAPSVRSLSLSLADSGHLPDVHGFNSYGSHRTLQRLSSGFDDIDLPSAVKYLMASDPNLQVLGAAYIQHKCYSDAAAKKQARSLQAVPRLVKLFNHANQEVQRHATGAMRNLIYDNADNKLALVEENGIFELLRTLREQDDELRKNVTGILWNLSSSDHLKDRLARDTLEQLTDLVLSPLSGAGGPPLIQQNASEAEIFYNATGFLRNLSSASQATRQKMRECHGLVDALVTSINHALDAGKCEDKSVENAVCVLRNLSYRLYDEMPPSALQRLEGRGRRDLAGAPPGEVVGCFTPQSRRLRELPLAADALTFAEVSKDPKGLEWLWSPQIVGLYNRLLQRCELNRHTTEAAAGALQNITAGDRRWAGVLSRLALEQERILNPLLDRVRTADHHQLRSLTGLIRNLSRNARNKDEMSTKVVSHLIEKLPGSVGEKSPPAEVLVNIIAVLNNLVVASPIAARDLLYFDGLRKLIFIKKKRDSPDSEKSSRAASSLLANLWQYNKLHRDFRAKGYRKEDFLGP

Legend:
[1] = target: keratin 19 (human (endogenous in MCF7)) (UniProt P08727); test: co-IP; MCF7 WT cell lysate in 1% Triton X-100 lysis buffer (40 mM HEPES pH 7.5, 120 mM NaCl, 1 mM EDTA), anti-K19 antibody or IgG control for 2 h at 4 °C, Protein G Plus-Agarose beads, washed 4X with lysis buffer supplemented with 300 mM NaCl; immunoblot; K19-KO cells as control
[2] = target: T1, Keratin-18 (human (endogenous in MCF7)) (UniProt P05783); test: co-IP; MCF7 WT and K19-KO cell lysates in 1% Triton X-100 lysis buffer, anti-K8 or anti-K18 antibody or IgG control for 2 h at 4 °C, Protein G Plus-Agarose beads, washed 4X with lysis buffer supplemented with 300 mM NaCl; immunoblot
T1 sequence: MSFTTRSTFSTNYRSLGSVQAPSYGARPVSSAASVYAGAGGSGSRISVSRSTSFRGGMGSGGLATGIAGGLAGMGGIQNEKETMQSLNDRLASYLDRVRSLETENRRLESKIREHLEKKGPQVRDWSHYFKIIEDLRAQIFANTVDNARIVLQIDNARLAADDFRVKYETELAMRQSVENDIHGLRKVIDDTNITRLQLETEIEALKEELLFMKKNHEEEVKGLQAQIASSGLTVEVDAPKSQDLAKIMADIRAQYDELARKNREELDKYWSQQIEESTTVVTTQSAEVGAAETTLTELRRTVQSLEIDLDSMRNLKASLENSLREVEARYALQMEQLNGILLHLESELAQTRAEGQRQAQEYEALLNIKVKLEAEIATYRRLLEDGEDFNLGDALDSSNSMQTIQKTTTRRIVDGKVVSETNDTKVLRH

[3] = target: Keratin-8 (human (endogenous in MCF7)) (UniProt P05787); test: as above

Molecule	binding [1]	binding [2]	binding [3]
desmoplakin (from UniProt P15924 1-2871)	binds	binds	binds
B1	binds	–	–
